According to US20230000924A1, “COMPOSITIONS AND METHODS FOR GENERATION OF SINOATRIAL NODE-LIKE CELLS AND THEIR USE IN DRUG DISCOVERY” (Cornell University, priority 2019, published 2023):
At least one structure is not confirmed: it was looked up by name or label, or the drawing left a doubt.

Test system: SHOX2:GFP+ cells
Test: Epigenetic library screen for SHOX2:GFP+ cells
Format: cell-based, human
Conditions: condition 8, compound added at day 7, after 14 days of differentiation
From the text: To quantify and purify SAN-like cells using this directed differentiation protocol, a dual knock-in SHOX2:GFP; MYH6:mCherry reporter line was created using CRISPR/Cas-based gene-targeting techniques (FIG. 6b). Immunofluorescence and FACS analyses confirmed the success of the protocol for generating putative hPSC-SAN cells, as condition 8 maximizes generation of SHOX2:GFP^+ cells (FIG. 1c, d). The sorted GFP^+ cells were enriched approximately 4000-fold for SHOX2 transcript levels compared to GFP^− cells (FIG. 1e), and most of the GFP^+ cells co-express ISL1 and HCN4, proteins closely associated with the development and function of SAN cells (FIG. 6b). To further enhance production of GFP^+ cells, we considered that SAN development may also be controlled epigenetically and performed an unbiased screen using a library of known epigenetic modulatory compounds. Cells were differentiated using condition 8 with compounds added at day 7 (FIG. 1f and FIG. 6c).
Pacemaker and cardiomyocyte induction. Differentiation was initiated 72 hours after plating when the culture was approximately 80% confluent. Step 1: Cells were differentiated with 1.5 μM CHIR99021 (CHIR, Stem-RD, Ch), 20 ng/mL BMP4 (B) and 20 ng/mL Activin A (AA) in RPMI (Cellgro) supplemented with B27 minus insulin, 2 mM GlutaMAX, 1× NEAA and 1× Pen/Strep for 3 days (RB27-INS). […]

## Nc1cc(F)ccc1NC(=O)c1ccc(CNC(=O)/C=C/c2cccnc2)cc1 [chidamide]
  total cell number: without reducing the total cell number
